Here are results for one sequence from paper PMC5612990 (2017).

The series in a line: general procedure: Fmoc solid-phase peptide synthesis. Conditions: conjugation step.

Ends that are not written are not given here.

With CTVRTSAD, the conjugation yield is 82%.
